Measurements from PMC9337993.

Key:
[1] = biological target: SynZur (Zn2SynZur as purified + Zn1SynZur after EDTA) (Synechococcus sp. WH8102) (UniProt Q7U3N0); assay: EMSA; conditions: EMSA: 10 mM Tris pH 8, 50 mM KCl, 2 mM MgCl2, 5% glycerol, 0.05 mg/ml BSA, 1 mM DTT, 3 mM spermidine, 5 ng DNA in 10 ul, room temperature 30 min, gel at 4 C, recombinant protein, label: none (SYBR Green stain), probe letters rebuilt from the primers and the genome
[2] = biological target: SynZur (Zn2SynZur as purified + Zn1SynZur after EDTA) (Synechococcus sp. WH8102) (UniProt Q7U3N0); assay: EMSA, Ferguson plot; conditions: binds as one dimer; EMSA: 10 mM Tris pH 8, 50 mM KCl, 2 mM MgCl2, 5% glycerol, 0.05 mg/ml BSA, 1 mM DTT, 3 mM spermidine, 5 ng DNA in 10 ul, room temperature 30 min, gel at 4 C; recombinant protein; label: none (SYBR Green stain); probe letters rebuilt from the primers and the genome

Measured: binding result

GTTCCATCCACAGCCACAACGCTTGGCTGGGCCGCCTGCGCCGCGACTGAACAACCCGAGACAACGCCCAGGGCGACCGCCAGACCCTTGACCAAAAGCGCAGGACGCGCCATGACACTCGAATGAGAATGATTATCATTTTTACAGTTCAACGGGTTGGCGCAACCCAATCGCGACCGCATGATGAAGTGAACCCACCGCAGCTGTGACAGAACCGCATTCGTCCATCAAGGGGCATCTAGCAGCCAGGAATCTC (double strand) [PznuA promoter (znuC-znuA intergenic fragment)]
binds: [1]; EDTA-treated SynZur with Zn2+ added back | [1]; Zn2SynZur as purified, 100% binding at 100 nM protein | [2]

Construct, isoform or probe ends are uncertain for at least one entry.
